Data from PMC11647514.
These are yes or no findings as the source states them, for the method shown. For part of these data: Binding seen in cells or lysates may run through a third protein. Some binding calls cover weakened binding; strength is not graded here. For part of these data: Tags and fused reporters may be left off the sequences shown.

Amino acid sequences for entries named in this document (tags omitted).
UniProt P15927: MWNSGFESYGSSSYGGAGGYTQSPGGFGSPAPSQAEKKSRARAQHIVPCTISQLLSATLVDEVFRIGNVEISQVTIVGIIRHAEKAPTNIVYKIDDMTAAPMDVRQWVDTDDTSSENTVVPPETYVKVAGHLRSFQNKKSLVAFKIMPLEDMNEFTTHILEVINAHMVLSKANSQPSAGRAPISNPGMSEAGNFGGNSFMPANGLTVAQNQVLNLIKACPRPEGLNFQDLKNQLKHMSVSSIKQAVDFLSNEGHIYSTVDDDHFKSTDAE

How the values were obtained:
[1] = target: T1, O-GlcNAc transferase (OGT), endogenous (human (endogenous in 293T)) (UniProt O15294); experiment: co-IP; 293T cell lysates immunoprecipitated with anti-OGT antibodies, immunoblotted with anti-RPA2; endogenous proteins; with or without etoposide treatment (interaction reduced after etoposide)
T1 sequence: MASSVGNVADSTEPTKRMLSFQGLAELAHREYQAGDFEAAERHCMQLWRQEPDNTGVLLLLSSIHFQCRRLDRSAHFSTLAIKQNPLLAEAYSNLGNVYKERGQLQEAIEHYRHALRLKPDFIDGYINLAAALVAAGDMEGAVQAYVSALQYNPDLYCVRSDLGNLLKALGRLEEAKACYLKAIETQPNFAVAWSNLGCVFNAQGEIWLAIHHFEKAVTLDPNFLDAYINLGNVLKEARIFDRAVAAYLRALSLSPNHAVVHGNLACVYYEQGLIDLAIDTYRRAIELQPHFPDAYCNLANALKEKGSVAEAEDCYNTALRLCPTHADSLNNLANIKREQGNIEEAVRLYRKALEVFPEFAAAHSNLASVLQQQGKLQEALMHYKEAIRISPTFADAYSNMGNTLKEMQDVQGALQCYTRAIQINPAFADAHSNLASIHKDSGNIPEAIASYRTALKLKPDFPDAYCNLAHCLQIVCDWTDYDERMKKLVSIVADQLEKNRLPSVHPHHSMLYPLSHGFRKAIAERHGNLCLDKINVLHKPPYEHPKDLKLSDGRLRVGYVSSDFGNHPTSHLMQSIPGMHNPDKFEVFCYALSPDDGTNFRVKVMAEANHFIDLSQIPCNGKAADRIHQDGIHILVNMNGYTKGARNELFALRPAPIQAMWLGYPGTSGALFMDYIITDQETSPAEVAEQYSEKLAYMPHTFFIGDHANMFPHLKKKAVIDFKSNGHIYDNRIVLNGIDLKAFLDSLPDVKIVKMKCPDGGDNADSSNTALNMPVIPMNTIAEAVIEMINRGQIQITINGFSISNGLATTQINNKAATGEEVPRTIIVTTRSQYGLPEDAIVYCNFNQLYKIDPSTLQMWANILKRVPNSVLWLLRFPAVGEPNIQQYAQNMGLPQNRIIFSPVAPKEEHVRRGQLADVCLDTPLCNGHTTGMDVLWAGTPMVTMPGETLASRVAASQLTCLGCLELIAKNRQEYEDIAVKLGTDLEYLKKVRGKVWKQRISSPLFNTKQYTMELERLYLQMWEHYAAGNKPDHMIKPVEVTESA

MBP-RPA2 = MBP-RPA2 (UniProt P15927); experiment: pull-down; recombinant MBP-RPA2 and GST-OGT proteins incubated and subject to pulldown; MBP-RPA2 as bait; both purified
Flag-RPA2 = Flag-RPA2 (UniProt P15927); experiment: co-IP; 293T cells co-transfected with HA-OGT and Flag-RPA2; lysates immunoprecipitated with anti-Flag antibody and immunoblotted; with or without etoposide treatment (interaction diminished by etoposide)

Replication Protein A2 (RPA2), endogenous (from UniProt P15927 1-270)
binding [1]: binds

B1: GST-OGT (enzyme, UniProt O15294 1-1046)
chain: MASSVGNVADSTEPTKRMLSFQGLAELAHREYQAGDFEAAERHCMQLWRQEPDNTGVLLLLSSIHFQCRRLDRSAHFSTLAIKQNPLLAEAYSNLGNVYKERGQLQEAIEHYRHALRLKPDFIDGYINLAAALVAAGDMEGAVQAYVSALQYNPDLYCVRSDLGNLLKALGRLEEAKACYLKAIETQPNFAVAWSNLGCVFNAQGEIWLAIHHFEKAVTLDPNFLDAYINLGNVLKEARIFDRAVAAYLRALSLSPNHAVVHGNLACVYYEQGLIDLAIDTYRRAIELQPHFPDAYCNLANALKEKGSVAEAEDCYNTALRLCPTHADSLNNLANIKREQGNIEEAVRLYRKALEVFPEFAAAHSNLASVLQQQGKLQEALMHYKEAIRISPTFADAYSNMGNTLKEMQDVQGALQCYTRAIQINPAFADAHSNLASIHKDSGNIPEAIASYRTALKLKPDFPDAYCNLAHCLQIVCDWTDYDERMKKLVSIVADQLEKNRLPSVHPHHSMLYPLSHGFRKAIAERHGNLCLDKINVLHKPPYEHPKDLKLSDGRLRVGYVSSDFGNHPTSHLMQSIPGMHNPDKFEVFCYALSPDDGTNFRVKVMAEANHFIDLSQIPCNGKAADRIHQDGIHILVNMNGYTKGARNELFALRPAPIQAMWLGYPGTSGALFMDYIITDQETSPAEVAEQYSEKLAYMPHTFFIGDHANMFPHLKKKAVIDFKSNGHIYDNRIVLNGIDLKAFLDSLPDVKIVKMKCPDGGDNADSSNTALNMPVIPMNTIAEAVIEMINRGQIQITINGFSISNGLATTQINNKAATGEEVPRTIIVTTRSQYGLPEDAIVYCNFNQLYKIDPSTLQMWANILKRVPNSVLWLLRFPAVGEPNIQQYAQNMGLPQNRIIFSPVAPKEEHVRRGQLADVCLDTPLCNGHTTGMDVLWAGTPMVTMPGETLASRVAASQLTCLGCLELIAKNRQEYEDIAVKLGTDLEYLKKVRGKVWKQRISSPLFNTKQYTMELERLYLQMWEHYAAGNKPDHMIKPVEVTESA
binding (MBP-RPA2): binds

B2: HA-OGT (enzyme, UniProt O15294 1-1046)
chain: MASSVGNVADSTEPTKRMLSFQGLAELAHREYQAGDFEAAERHCMQLWRQEPDNTGVLLLLSSIHFQCRRLDRSAHFSTLAIKQNPLLAEAYSNLGNVYKERGQLQEAIEHYRHALRLKPDFIDGYINLAAALVAAGDMEGAVQAYVSALQYNPDLYCVRSDLGNLLKALGRLEEAKACYLKAIETQPNFAVAWSNLGCVFNAQGEIWLAIHHFEKAVTLDPNFLDAYINLGNVLKEARIFDRAVAAYLRALSLSPNHAVVHGNLACVYYEQGLIDLAIDTYRRAIELQPHFPDAYCNLANALKEKGSVAEAEDCYNTALRLCPTHADSLNNLANIKREQGNIEEAVRLYRKALEVFPEFAAAHSNLASVLQQQGKLQEALMHYKEAIRISPTFADAYSNMGNTLKEMQDVQGALQCYTRAIQINPAFADAHSNLASIHKDSGNIPEAIASYRTALKLKPDFPDAYCNLAHCLQIVCDWTDYDERMKKLVSIVADQLEKNRLPSVHPHHSMLYPLSHGFRKAIAERHGNLCLDKINVLHKPPYEHPKDLKLSDGRLRVGYVSSDFGNHPTSHLMQSIPGMHNPDKFEVFCYALSPDDGTNFRVKVMAEANHFIDLSQIPCNGKAADRIHQDGIHILVNMNGYTKGARNELFALRPAPIQAMWLGYPGTSGALFMDYIITDQETSPAEVAEQYSEKLAYMPHTFFIGDHANMFPHLKKKAVIDFKSNGHIYDNRIVLNGIDLKAFLDSLPDVKIVKMKCPDGGDNADSSNTALNMPVIPMNTIAEAVIEMINRGQIQITINGFSISNGLATTQINNKAATGEEVPRTIIVTTRSQYGLPEDAIVYCNFNQLYKIDPSTLQMWANILKRVPNSVLWLLRFPAVGEPNIQQYAQNMGLPQNRIIFSPVAPKEEHVRRGQLADVCLDTPLCNGHTTGMDVLWAGTPMVTMPGETLASRVAASQLTCLGCLELIAKNRQEYEDIAVKLGTDLEYLKKVRGKVWKQRISSPLFNTKQYTMELERLYLQMWEHYAAGNKPDHMIKPVEVTESA
binding (Flag-RPA2): binds
